PubChem BioAssay AID248 (DTP/NCI, 2004)
The list does not hold the whole screen: it gathers tests that were run many times, whatever their T/C, doses with no T/C, and many T/C values between a quarter and a half above the control. Other doses and runs of a compound stand elsewhere. T/C: endpoint of the treated group in % of that of the vehicle group. Some entries give survivors of the animals treated and no T/C: the source holds a T/C of zero for them, seemingly a mark for toxic or unscored doses. Some doses without a T/C left all or most animals alive at the check, yet need not have been tolerated: survival well below the control is almost never listed, so the zero probably covers shortened survival too. Counts of survivors are from the toxicity check (mostly the fifth day) where no day follows; animals may have died later. Schedule codes are those of the source, taken here to give the interval after Q, in days (D) or hours (H), and the number of doses after X. Some structures stand for samples that the source files as different forms (salt, stereo form or complex); doses refer to the form tested. Marks such as (2×) say how often a value occurs here. Some schedule codes hold Z or #, which are not explained here. Some entries hold several experiments; their values stand side by side, smallest first. Where survival is the endpoint, the PubChem record calls one and a half times the control and up active, and a quarter to a half above the control has no call in these data; cut-offs in other NCI protocols can differ. Some T/C values are followed by the survivors on the day toxicity was checked, most often the fifth; without a count, all were alive then.

Test system: L1210 leukemia ip in BDF1 mice, survival T/C
Experiment: NCI In Vivo Anticancer Drug Screen. Data for tumor model L1210 Leukemia (intraperitoneal) in B6D2F1 (BDF1) mice
Conditions: T/C endpoint: mean survival time, higher T/C = longer survival
[1] = dose: 100.0 mg/kg/injection, schedule: Q01DX001 (ip), vehicle: carboxymethylcellulose (CMC)
[2] = dose: 200.0 mg/kg/injection, schedule: Q01DX001 (ip), vehicle: carboxymethylcellulose (CMC)
[3] = dose: 400.0 mg/kg/injection, schedule: Q01DX001 (ip), vehicle: carboxymethylcellulose (CMC)
[4] = dose: 200.0 mg/kg/injection, schedule: Q04DX003 (ip), vehicle: saline
[5] = dose: 400.0 mg/kg/injection, schedule: Q04DX003 (ip), vehicle: saline
[6] = dose: 100.0 mg/kg/injection, schedule: Q01DX009 (ip), vehicle: saline with Tween-80
[7] = dose: 200.0 mg/kg/injection, schedule: Q01DX009 (ip), vehicle: saline with Tween-80
[8] = dose: 400.0 mg/kg/injection, schedule: Q01DX009 (ip), vehicle: saline with Tween-80
[9] = dose: 100.0 mg/kg/injection, schedule: Q01DX009 (ip), vehicle: Klucel (hydroxypropylcellulose) (HPC)
[10] = dose: 200.0 mg/kg/injection, schedule: Q01DX009 (ip), vehicle: Klucel (hydroxypropylcellulose) (HPC)
[11] = dose: 400.0 mg/kg/injection, schedule: Q01DX009 (ip), vehicle: Klucel (hydroxypropylcellulose) (HPC)
[12] = dose: 400.0 mg/kg/injection, schedule: Q04DX003 (ip), vehicle: Klucel (hydroxypropylcellulose) (HPC)
[13] = dose: 400.0 mg/kg/injection, schedule: Q04DX003 (ip), vehicle: saline with Tween-80
[14] = dose: 400.0 mg/kg/injection, schedule: Q01DX001 (ip), vehicle: saline
[15] = dose: 100.0 mg/kg/injection, schedule: Q01DX009 (ip), vehicle: saline
[16] = dose: 400.0 mg/kg/injection, schedule: Q01DX009 (ip), vehicle: saline
[17] = dose: 200.0 mg/kg/injection, schedule: Q04DX002 (ip), vehicle: saline
[18] = dose: 400.0 mg/kg/injection, schedule: Q04DX002 (ip), vehicle: saline

Structure (SMILES): c1ccc(-c2cc(-c3ccccc3)n(-c3ccccc3)c2)cc1
- survivor count (dose: 400.0 mg/kg/injection, schedule: Q01DX001 (ip), vehicle: saline with Tween-80): 6 of 6

Structure (SMILES): CC(=S)N1CCCCC1
- survivor count [1]: 0 of 4
- survivor count [2]: 0 of 4
- survivor count [3]: 0 of 4

Structure (SMILES): CCN(CCC[N+](C)(C)C)C(=O)C(c1ccccc1)c1ccccc1
- survivor count [4]: 3 of 6
- survivor count [5]: 0 of 6

Structure (SMILES): CCCCCCCCCCCC(=O)NC(=S)Nc1ccccc1C(=O)OC
- survivor count [6]: 3 of 3

Structure (SMILES): CC(C)(CBr)COC(=O)Nc1cccc2ccccc12
- survivor count [6]: 2 of 3

Structure (SMILES): CC(CCCN(C)Cc1ccccc1)Nc1ccnc2cc(Cl)ccc12 (configuration not stated)
- survivor count [6]: 2 of 6
- survivor count [7]: 0 of 6
- survivor count [8]: 0 of 6

Structure (SMILES): CN(C)/N=[N+](\[O-])c1ccccc1
- survivor count [9]: 4 of 6
- survivor count [10]: 0 of 6
- survivor count (dose: 200.0 mg/kg/injection, schedule: Q04DX003 (ip), vehicle: Klucel (hydroxypropylcellulose) (HPC)): 1 of 6
- survivor count [11]: 0 of 6
- survivor count [12]: 0 of 6

Structure (SMILES): Cc1cc(F)ccc1[As](=O)(O)O
- survivor count (dose: 50.0 mg/kg/injection, schedule: Q04DX003 (ip), vehicle: saline with Tween-80): 2 of 6
- survivor count (dose: 100.0 mg/kg/injection, schedule: Q04DX003 (ip), vehicle: saline with Tween-80): 0 of 6 (2×)
- survivor count (dose: 200.0 mg/kg/injection, schedule: Q04DX003 (ip), vehicle: saline with Tween-80): 0 of 6
- survivor count [13]: 0 of 6

Structure (SMILES): Cc1cc(C)c(NC(=S)NC(=O)C(C)Oc2ccccc2)c(C)c1 (configuration not stated)
- survivor count [8]: 3 of 3

Structure (SMILES): Cc1c(C)c(CC#N)c(C)c(C)c1CC#N
- survivor count [11]: 6 of 6

Structure (SMILES): CCCCOP(=O)(/C=C/c1cccs1)OCCCC
- survivor count [13]: 2 of 6

Structure (SMILES): O=S(=O)(Nc1cc(S(=O)(=O)c2ccccc2)c(NS(=O)(=O)c2ccccc2)cc1Cl)c1ccccc1
- survivor count [9]: 6 of 6
- survivor count [12]: 6 of 6

Structure (SMILES): N#CC1(Nc2ccc(-c3ccc(Cl)cc3)cc2)CCCC1
- survivor count [3]: 4 of 4

Structure (SMILES): CC(CC(=O)c1ccc(F)cc1)N1CCOCC1 (configuration not stated)
- survivor count [14]: 3 of 4

Structure (SMILES): OC[CH2][Hg][Br]
- survivor count (dose: 12.5 mg/kg/injection, schedule: Q04DX002 (ip), vehicle: Klucel (hydroxypropylcellulose) (HPC)): 3 of 3
- survivor count (dose: 25.0 mg/kg/injection, schedule: Q04DX002 (ip), vehicle: Klucel (hydroxypropylcellulose) (HPC)): 1 of 3
- survivor count (dose: 50.0 mg/kg/injection, schedule: Q04DX002 (ip), vehicle: Klucel (hydroxypropylcellulose) (HPC)): 0 of 3
- survivor count (dose: 100.0 mg/kg/injection, schedule: Q04DX002 (ip), vehicle: Klucel (hydroxypropylcellulose) (HPC)): 0 of 3
- survivor count (dose: 200.0 mg/kg/injection, schedule: Q04DX002 (ip), vehicle: Klucel (hydroxypropylcellulose) (HPC)): 0 of 3
- survivor count (dose: 400.0 mg/kg/injection, schedule: Q04DX002 (ip), vehicle: Klucel (hydroxypropylcellulose) (HPC)): 0 of 3

Structure (SMILES): Nc1cccs1
- T/C (dose: 32.5 mg/kg/injection, schedule: Q01DX009 (ip), vehicle: saline): 125 % of control [4 of 6 alive]
- T/C (dose: 65.0 mg/kg/injection, schedule: Q01DX009 (ip), vehicle: saline): 136 % of control
- T/C [15]: 125 % of control
- T/C (dose: 150.0 mg/kg/injection, schedule: Q01DX009 (ip), vehicle: saline): 129 % of control
- survivor count (dose: 200.0 mg/kg/injection, schedule: Q01DX009 (ip), vehicle: saline): 3 of 6
- survivor count [16]: 0 of 6

Structure (SMILES): O=C(c1ccc2ccccc2c1)c1cccc(F)c1C(=O)O (tested in a mixture with another compound)
- survivor count (dose: 300.0 mg/kg/injection, schedule: Q01DX001 (ip), vehicle: carboxymethylcellulose (CMC)): 2 of 6

Structure (SMILES): C=CCOC(=O)c1ccco1
- survivor count [10]: 3 of 6
- survivor count [11]: 0 of 6

Structure (SMILES): CN(C)c1ccc(/C=N/N=C(N)N)cc1
- survivor count (dose: 120.0 mg/kg/injection, schedule: Q01DX Z (ip), vehicle: saline): 0 of 6
- survivor count (dose: 240.0 mg/kg/injection, schedule: Q01DX Z (oral), vehicle: other): 0 of 6

Structure (SMILES): O=C(Nc1ccc(C2=NCCN2)cc1)c1cc(Cl)cc(C(=O)Nc2ccc(C3=NCCN3)cc2)c1
- T/C (dose: 210.0 mg/kg/injection, schedule: Q01DX Z (ip), vehicle: methylcellulose (MC)): 126 % of control
- T/C (dose: 315.0 mg/kg/injection, schedule: Q01DX Z (ip), vehicle: methylcellulose (MC)): 138 % of control
- T/C (dose: 473.0 mg/kg/injection, schedule: Q01DX Z (ip), vehicle: methylcellulose (MC)): 131 % of control

Structure (SMILES): COc1cc(C)c(Cc2cnc(N)nc2N)cc1OC
- survivor count [12]: 4 of 6

Structure (SMILES): CCOC(=O)CCc1ccc(O)c(O)c1
- survivor count [16]: 1 of 6

Structure (SMILES): CCCCOCc1cc(CN2CCN(C)CC2)c(O)c2ncccc12
- survivor count [17]: 2 of 3
- survivor count [18]: 0 of 3

Structure (SMILES): Cc1nnc([N+](=O)[O-])s1
- survivor count [9]: 0 of 6
- survivor count [10]: 0 of 6
- survivor count [11]: 0 of 6

Structure (SMILES): Nc1nc(=O)n(CC(=O)c2ccco2)cc1F
- survivor count [16]: 0 of 6

Structure (SMILES): CSc1nc(N)nc2nc(C)cc(C)c12
- survivor count (dose: 200.0 mg/kg/injection, schedule: Q01DX Z (ip), vehicle: methylcellulose (MC)): 3 of 6

Structure (SMILES): OCC1OC([Se][Se]C2OC(CO)C(O)C(O)C2O)C(O)C(O)C1O (configuration not stated)
- survivor count (dose: 25.0 mg/kg/injection, schedule: Q01DX009 (ip), vehicle: saline): 5 of 6
- survivor count (dose: 50.0 mg/kg/injection, schedule: Q01DX009 (ip), vehicle: saline): 3 of 6
- survivor count [15]: 0 of 6
- survivor count [17]: 2 of 3
- survivor count [18]: 1 of 3

Structure (SMILES): CC(C)CC(CC(C)C)NCC(C)OC(=O)c1ccc(N)cc1 (configuration not stated)
- survivor count (dose: 50.0 mg/kg/injection, schedule: Q01DX009 (ip), vehicle: saline with Tween-80): 5 of 6
- survivor count [6]: 1 of 6
- survivor count (dose: 100.0 mg/kg/injection, schedule: Q04DX003 (ip), vehicle: water): 2 of 6
- survivor count (dose: 150.0 mg/kg/injection, schedule: Q01DX001 (ip), vehicle: other): 1 of 6 and 2 of 6
- survivor count [7]: 0 of 6
- survivor count [4]: 0 of 6
- survivor count (dose: 200.0 mg/kg/injection, schedule: Q04DX003 (ip), vehicle: water): 0 of 6
- survivor count (dose: 300.0 mg/kg/injection, schedule: Q01DX001 (ip), vehicle: other): 0 of 6 and 1 of 6
- survivor count [5]: 0 of 6
- survivor count (dose: 400.0 mg/kg/injection, schedule: Q04DX003 (ip), vehicle: water): 0 of 6

Structure (SMILES): CCCCC(CC)(CCN)CCCC
- survivor count (dose: 40.0 mg/kg/injection, schedule: Q01DX001 (ip), vehicle: carboxymethylcellulose (CMC)): 0 of 4
- survivor count (dose: 50.0 mg/kg/injection, schedule: Q01DX001 (ip), vehicle: carboxymethylcellulose (CMC)): 0 of 4
- survivor count (dose: 80.0 mg/kg/injection, schedule: Q01DX001 (ip), vehicle: carboxymethylcellulose (CMC)): 0 of 4
- survivor count [1]: 0 of 4
- survivor count [2]: 0 of 4
- survivor count [3]: 0 of 4

Structure (SMILES): O=NN(CCCl)C(=O)C1CCCCC1
- survivor count (dose: 375.0 mg/kg/injection, schedule: Q01DX001 (ip), vehicle: carboxymethylcellulose (CMC)): 2 of 6

Structure (SMILES): C/C(=C/c1c(C)[nH]c(=O)[nH]c1=O)C(=O)O
- survivor count [16]: 5 of 6

Structure (SMILES): NC(=S)N1CCCCC1
- survivor count [14]: 2 of 4

Structure (SMILES): CCCCCCCCCCCCCCCCCC(=O)N/N=C/CCc1ccccc1
- survivor count [7]: 6 of 6
- survivor count [8]: 6 of 6
